The RNAGym collection of RNA variant scans (doi:10.1126/science.aae0568)
Variants at the floor of the assay are shown more often than the library holds them.

B1: tRNA (parent)
chain: GUUCCGUUGGCGUAAUGGUAACGCGUCUCCCUCCUAAGGAGAAGACUGCGGGUUCGAGUCCCGUACGGAACG

Variants of: B1
Experiment: yeast fitness relative to wild type (ratio to wild type); higher = fitter; tRNA-Arg(CCU), competitive growth, 37 C, YPD
Method in brief: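 Changes in genotype frequencies gave Darwinian fitness relative to wild type. Frequencies were read by 100-nucleotide paired-end sequencing of gene amplicons before and after pooled Saccharomyces cerevisiae strains, carrying tRNA-Arg(CCU) gene variants at the native locus, were competed in YPD at 37°C for 24 hours in six replicates. A genotype was kept only with ≥ 100 starting reads, and estimates < 0.5 were set to 0.5.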

Question: Which yeast fitness does the source give for GUUCUGUUGGCGUAAUGGUAACGCGUCUCCCUCCUAAGGCGAAGACUCCGGGUUCGAGUCCCGUACGGAACG [C5U A40C G48C] here?
Answer: Its yeast fitness is at most 0.5.

Question: Which yeast fitness does the source give for GUUCUGUUGGCGUAAUGGUAACGCGUCUCCCUCCUAAGGAGGAGUCUGCGGGUUCGAGUGCCGUACGGAACG [C5U A42G A45U C60G] here?
Answer: The yeast fitness was at most 0.5.

Question: For GUUCUGUUGGGGUAAUGGUAACGCGUCUACCUCCUAAGGAGAAGAAUGCGGGUUCGAGUCCCGUACGGAACG [C5U C11G C29A C46A], which yeast fitness is on record?
Answer: Its yeast fitness is at most 0.5.

Question: Which yeast fitness does the source give for GUUCUGUUGGGGUAAUGGUAACGCGUCUCCCUCUUAAGGAGCAGACUGCGGGUUCGAGUCACGUACGGAUCG [C5U C11G C34U A42C C61A A70U] here?
Answer: The yeast fitness was at most 0.5.

Question: For GUUCUGUUGGUGCAAUGGUAACGCGUCUCUCUCCUAAGGGGAAGACUGCGGGUUCGAGUCCCGUACGGAACG [C5U C11U U13C C30U A40G], which yeast fitness is on record?
Answer: Its yeast fitness is at most 0.5.

Question: Which yeast fitness does the source give for GUUCUGUUGGCGUAAUGGUAAGGCGUCUCCCUCCUAAGGAGAAGACUGCGGGUUCGAGUCCCGUACGGCACG [C5U C22G A69C] here?
Answer: The yeast fitness was 0.691.

Question: For GUUCUGUUGGCGUAAUGGUAAGGCGUCUGCCUCCUAAGGAGAAGACUGCGGGUUCGAGUCCUGUACGGAACG [C5U C22G C29G C62U], which yeast fitness is on record?
Answer: Its yeast fitness is at most 0.5.

Question: Which yeast fitness does the source give for GUUCUGUUGGCGUAAUGGUAAGGCGUCUCCCUCAUUAGGAGAAGACUACGGCUUCGAGUACCGUACGGAACG [C5U C22G C34A A36U G48A G52C C60A] here?
Answer: Its yeast fitness is at most 0.5.

Question: For GUUCUGUUGGCGUAAUGGUAAUGCGUCUCCCUCCAAUGGAGAAGACUGCGGGUUCGAGUCCCGUACAGAACG [C5U C22U U35A A37U G67A], which yeast fitness is on record?
Answer: Its yeast fitness is at most 0.5.

Question: With GUUCUGUUGGCGUAAUGGUAACGAGUCUCCCUCCUAAGCAGAAGACUGCGGGUCCGAGUGCCGUACGGAACG [C5U C24A G39C U54C C60G] as the variant, how does the yeast fitness read?
Answer: Its yeast fitness is at most 0.5.

Question: With GUUCUGUUGGCGUAAUGGUAACGAGUCUCCCCCCUAAGGAGAAGACUGCGGGUUCGAGUCCCGUACGGAACG [C5U C24A U32C] as the variant, how does the yeast fitness read?
Answer: The yeast fitness was 0.565.

Question: With GUUCUGUUGGCGUAAUGGUAACGCGUAUCCCUCCUAAGGAGUAGACUACGGGUUCGAGUCCCGUACGGAACG [C5U C27A A42U G48A] as the variant, how does the yeast fitness read?
Answer: The yeast fitness was at most 0.5.

Question: Which yeast fitness does the source give for GUUCUGUUGGCGUAAUGGUAACGCGUGUCCCUGCUAAGGAGCAGACUGCGGGUUCGAGUCCCGUACGGAACG [C5U C27G C33G A42C] here?
Answer: Its yeast fitness is at most 0.5.

Question: With GUUCUGUUGGCGUAAUGGUAACGCGUUUCCCUCCUAAGGAGAAGACUGCGGGUUUGAGUCCCGUCCGGGACG [C5U C27U C55U A65C A69G] as the variant, how does the yeast fitness read?
Answer: Its yeast fitness is at most 0.5.

Question: For GUUCUGUUGGCGUAAUGGUAACGCGUCUGCCUCCUAAGGAGAAGACUGCGGGGUCGAGUCCCGUACGGAACG [C5U C29G U53G], which yeast fitness is on record?
Answer: The yeast fitness was at most 0.5.

Question: Which yeast fitness does the source give for GUUCUGUUGGCGUAAUGGUAACGCGUCUUCCUCCUAAGGAGAAGACUGCGGGUUCGGGCCCCGUACGGAACG [C5U C29U A57G U59C] here?
Answer: The yeast fitness was at most 0.5.

Question: Which yeast fitness does the source give for GUUCUGUUGGCGUAAUGGUAACGCGUCUCUCUCCUACGGAGAAGACUGCGGGUUCGAGUCCCGUGCGGACCG [C5U C30U A37C A65G A70C] here?
Answer: The yeast fitness was at most 0.5.

Question: Which yeast fitness does the source give for GUUCUGUUGGCGUAAUGGUAACGCGUCUCUCGCCUGUGGAGAAGACAGCGGGUUCGAGUCCCGUACGGAACG [C5U C30U U32G A36G A37U U47A] here?
Answer: The yeast fitness was at most 0.5.

Question: For GUUCUGUUGGCGUAAUGGUAACGCGUCUCCGUGUUAAGGAGACGACUGCGGGUUCGCGUCCCGUACGGAACG [C5U C31G C33G C34U A43C A57C], which yeast fitness is on record?
Answer: The yeast fitness was at most 0.5.

Question: Which yeast fitness does the source give for GUUCUGUUGGCGUAAUGGUAACGCGUCUCCGUCCUAAGGAGAAGACUGCGGGUUGGAGUCCCGCACGGAACG [C5U C31G C55G U64C] here?
Answer: The yeast fitness was at most 0.5.

Question: For GUUCUGUUGGCGUAAUGGUAACGCGUCUCCCUCAUAAGGAGAAGACUGCGGGUUCGAGUCCCGUAUGGAACG [C5U C34A C66U], which yeast fitness is on record?
Answer: Its yeast fitness is at most 0.5.

Question: Which yeast fitness does the source give for GUUCUGUUGGCGUAAUGGUAACGCGUCUCCCUCCUAAGGAGAAGACUGUGGGUUCGAGUCCCGUAAAGAACG [C5U C49U C66A G67A] here?
Answer: Its yeast fitness is at most 0.5.

Question: For GUUCUGUUGGCGUAAUGGUAACGCGUCUCCCUCCUAAGGAGAAGACUGCGGGUUUGAGUCCGGUAAGGAACG [C5U C55U C62G C66A], which yeast fitness is on record?
Answer: The yeast fitness was at most 0.5.

Question: For GUUCUGUUGGCAUAAUGGUAACGCGUCUCCCUCCUAAGGUGAAGGCUGCGGGCUCGGGUCCCGUAUGGAACG [C5U G12A A40U A45G U53C A57G C66U], which yeast fitness is on record?
Answer: Its yeast fitness is at most 0.5.

Question: For GUUCUGUUGGCAUAAUGGUAACGCGUCUACCUCCUAAGGAGAAGACUGCGGGUUCGAGGCCCGUACGGAACG [C5U G12A C29A U59G], which yeast fitness is on record?
Answer: Its yeast fitness is at most 0.5.

Question: For GUUCUGUUGGCAUAAUGGUAACGCGUCUCACUCCUAAGGAGAAGACUGCGGGUUCGAGUCCAGUACGGAACG [C5U G12A C30A C62A], which yeast fitness is on record?
Answer: The yeast fitness was at most 0.5.

Question: Which yeast fitness does the source give for GUUCUGUUGGCGUAAUAGUAACGCGUCUCCCUCCUAAGGAGAAGACUGCGGGUUCGAGUCCCGUACGGAACG [C5U G17A] here?
Answer: Its yeast fitness is 0.929.

Question: With GUUCUGUUGGCGUAAUAGUAACGCGUCUCCCUCUUAAGGAGAAGACUGCGGGUUGGAGUCCCGUACGGAACG [C5U G17A C34U C55G] as the variant, how does the yeast fitness read?
Answer: The yeast fitness was at most 0.5.

Question: With GUUCUGUUGGCGUAAUCGUAACGCGUCUCCCUCCUAAGGAGAAGACUGCGGGUUUGAGUCCCGUAGGGAACG [C5U G17C C55U C66G] as the variant, how does the yeast fitness read?
Answer: The yeast fitness was at most 0.5.

Question: Which yeast fitness does the source give for GUUCUGUUGGCGUAAUGAUAACGCGUCUCCCUCCUAAGGUGAAGACCGCGGGUUCGAGUCCCGUACGGAACG [C5U G18A A40U U47C] here?
Answer: The yeast fitness was 0.501.

Question: Which yeast fitness does the source give for GUUCUGUUGGCGUAAUGCUAAAGCGUCUCCCUCCUAAGGAGAAGACUGCGGGUUCGAGUCCCGUACGGAUCG [C5U G18C C22A A70U] here?
Answer: The yeast fitness was at most 0.5.

Question: For GUUCUGUUGGCGUAAUGCUAACGCGUCUCCCUCCUAAGGAGAAGACUGCGGCUUCGAGUCCCGUACGGAACG [C5U G18C G52C], which yeast fitness is on record?
Answer: Its yeast fitness is at most 0.5.

Question: Which yeast fitness does the source give for GUUCUGUUGGCGUAAUGCUAACGCGGCUCCCUCCUAAGGAGAAGACUGCGGGUUCGAGUCCCGUACGGAACG [C5U G18C U26G] here?
Answer: The yeast fitness was at most 0.5.

Question: For GUUCUGUUGGCGUAAUGGUAACACGUCUCUCUACUAAGGACUAGACUGCGGGUUCGAGUCCCGUACGGAACG [C5U G23A C30U C33A G41C A42U], which yeast fitness is on record?
Answer: Its yeast fitness is at most 0.5.

Question: For GUUCUGUUGGCGUAAUGGUAACGCAUCUCCCUCCUAAGGAGAAGACUGAGGGUUCGAGUCCCGUACGGUACG [C5U G25A C49A A69U], which yeast fitness is on record?
Answer: Its yeast fitness is at most 0.5.

Question: With GUUCUGUUGGCGUAAUGGUAACGCGUCUCCCUCCUAAGGAGAACACUGCGGGUUCGAGUCUCGUACGGAACG [C5U G44C C61U] as the variant, how does the yeast fitness read?
Answer: Its yeast fitness is 0.702.

Question: With GUUCUGAUGGCGUAAUGGUAUCGCGUGUGCCUCCUAAGGAGAAGACUGCGGGUUCGAGUCCCGUACGGAACG [C5U U7A A21U C27G C29G] as the variant, how does the yeast fitness read?
Answer: Its yeast fitness is at most 0.5.
